Experimental data as given in the supplement of paper PMC10849652.
The list shows a part of the results.

Sequences of proteins named here, by UniProt entry; tags and fusion partners are left off. A change or cut given only in a name is not applied to a line headed by its entry.
UniProt Q9NZW5: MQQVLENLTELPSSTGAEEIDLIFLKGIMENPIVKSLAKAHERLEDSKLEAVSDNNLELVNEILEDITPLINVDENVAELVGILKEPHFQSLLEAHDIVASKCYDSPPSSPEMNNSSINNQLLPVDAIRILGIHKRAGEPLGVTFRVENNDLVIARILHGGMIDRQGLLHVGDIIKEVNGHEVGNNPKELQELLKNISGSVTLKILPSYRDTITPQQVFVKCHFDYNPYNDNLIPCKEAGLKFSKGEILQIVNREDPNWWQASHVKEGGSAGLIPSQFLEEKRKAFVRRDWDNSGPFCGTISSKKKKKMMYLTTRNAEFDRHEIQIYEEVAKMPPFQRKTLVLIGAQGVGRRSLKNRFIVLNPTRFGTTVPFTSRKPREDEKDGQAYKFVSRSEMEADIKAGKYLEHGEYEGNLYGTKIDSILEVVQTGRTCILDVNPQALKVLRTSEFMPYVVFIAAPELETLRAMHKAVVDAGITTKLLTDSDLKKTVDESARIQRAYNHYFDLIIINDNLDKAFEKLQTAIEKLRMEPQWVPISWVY
UniProt Q7L1V2: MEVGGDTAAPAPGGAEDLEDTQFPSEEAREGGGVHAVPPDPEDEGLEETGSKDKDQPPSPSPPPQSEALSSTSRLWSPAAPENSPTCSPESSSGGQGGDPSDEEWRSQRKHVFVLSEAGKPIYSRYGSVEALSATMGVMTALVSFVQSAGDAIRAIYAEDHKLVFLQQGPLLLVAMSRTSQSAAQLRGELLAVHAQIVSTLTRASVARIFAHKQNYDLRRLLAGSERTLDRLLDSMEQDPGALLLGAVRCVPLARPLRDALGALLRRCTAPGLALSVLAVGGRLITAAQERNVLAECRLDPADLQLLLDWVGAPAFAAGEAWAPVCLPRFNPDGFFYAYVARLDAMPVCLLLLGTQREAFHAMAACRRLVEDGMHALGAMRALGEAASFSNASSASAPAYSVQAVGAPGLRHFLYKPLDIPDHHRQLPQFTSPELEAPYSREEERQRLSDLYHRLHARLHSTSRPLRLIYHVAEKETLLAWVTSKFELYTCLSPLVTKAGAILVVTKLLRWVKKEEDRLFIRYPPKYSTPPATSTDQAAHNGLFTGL
UniProt Q9HCE1: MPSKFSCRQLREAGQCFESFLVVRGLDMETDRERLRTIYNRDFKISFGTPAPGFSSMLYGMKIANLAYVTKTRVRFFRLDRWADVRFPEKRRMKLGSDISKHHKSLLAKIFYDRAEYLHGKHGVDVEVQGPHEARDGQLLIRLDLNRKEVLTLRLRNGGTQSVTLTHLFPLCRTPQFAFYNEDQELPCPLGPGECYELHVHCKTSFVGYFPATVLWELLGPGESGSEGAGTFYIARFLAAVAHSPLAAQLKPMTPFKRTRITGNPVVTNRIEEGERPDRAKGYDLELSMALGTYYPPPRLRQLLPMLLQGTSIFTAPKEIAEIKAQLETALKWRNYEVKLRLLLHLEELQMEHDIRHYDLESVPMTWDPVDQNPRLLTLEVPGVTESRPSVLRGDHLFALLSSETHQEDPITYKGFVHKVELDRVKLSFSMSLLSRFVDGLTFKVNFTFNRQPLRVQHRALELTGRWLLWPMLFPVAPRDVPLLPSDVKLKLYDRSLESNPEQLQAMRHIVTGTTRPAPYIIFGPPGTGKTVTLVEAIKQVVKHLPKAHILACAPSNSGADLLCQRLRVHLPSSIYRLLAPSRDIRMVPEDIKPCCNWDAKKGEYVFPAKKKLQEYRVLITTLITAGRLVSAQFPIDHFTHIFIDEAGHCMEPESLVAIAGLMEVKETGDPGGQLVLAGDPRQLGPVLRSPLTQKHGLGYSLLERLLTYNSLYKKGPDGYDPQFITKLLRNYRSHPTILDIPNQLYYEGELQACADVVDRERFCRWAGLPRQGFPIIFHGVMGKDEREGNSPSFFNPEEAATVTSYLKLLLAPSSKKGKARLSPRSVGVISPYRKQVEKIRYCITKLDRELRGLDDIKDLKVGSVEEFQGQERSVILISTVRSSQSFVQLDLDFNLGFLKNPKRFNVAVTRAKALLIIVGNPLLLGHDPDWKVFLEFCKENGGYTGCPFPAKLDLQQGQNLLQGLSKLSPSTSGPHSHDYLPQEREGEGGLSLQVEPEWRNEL
UniProt Q96EY8: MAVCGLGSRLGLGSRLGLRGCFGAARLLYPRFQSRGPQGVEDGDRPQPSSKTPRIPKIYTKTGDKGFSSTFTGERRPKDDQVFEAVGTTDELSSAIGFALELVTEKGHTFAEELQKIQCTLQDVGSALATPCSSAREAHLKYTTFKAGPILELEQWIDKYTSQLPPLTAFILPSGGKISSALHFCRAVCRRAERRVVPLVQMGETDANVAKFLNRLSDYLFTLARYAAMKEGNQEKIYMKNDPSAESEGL
UniProt Q00013: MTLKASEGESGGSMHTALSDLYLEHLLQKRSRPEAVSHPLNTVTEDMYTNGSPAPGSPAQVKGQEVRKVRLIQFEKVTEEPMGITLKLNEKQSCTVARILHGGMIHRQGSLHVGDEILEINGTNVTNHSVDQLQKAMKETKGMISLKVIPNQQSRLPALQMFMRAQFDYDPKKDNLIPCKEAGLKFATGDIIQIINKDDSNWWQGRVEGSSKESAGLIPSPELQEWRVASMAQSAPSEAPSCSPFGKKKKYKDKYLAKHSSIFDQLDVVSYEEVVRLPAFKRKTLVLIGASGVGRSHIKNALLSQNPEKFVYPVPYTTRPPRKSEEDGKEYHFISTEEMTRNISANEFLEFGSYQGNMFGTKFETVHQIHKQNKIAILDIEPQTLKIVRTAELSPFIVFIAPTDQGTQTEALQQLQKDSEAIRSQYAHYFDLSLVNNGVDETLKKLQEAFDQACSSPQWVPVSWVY
UniProt O95563: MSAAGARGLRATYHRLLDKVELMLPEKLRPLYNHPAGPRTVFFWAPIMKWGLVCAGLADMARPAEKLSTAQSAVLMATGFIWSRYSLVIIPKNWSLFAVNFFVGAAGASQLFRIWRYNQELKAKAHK
UniProt P14174: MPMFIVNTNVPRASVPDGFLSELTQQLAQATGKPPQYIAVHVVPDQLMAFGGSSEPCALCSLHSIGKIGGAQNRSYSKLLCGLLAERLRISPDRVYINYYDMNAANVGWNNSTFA
UniProt Q99547: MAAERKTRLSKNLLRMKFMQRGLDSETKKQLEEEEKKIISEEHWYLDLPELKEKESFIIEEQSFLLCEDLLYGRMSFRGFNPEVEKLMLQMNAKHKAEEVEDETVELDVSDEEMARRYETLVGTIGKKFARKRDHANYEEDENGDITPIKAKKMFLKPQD
UniProt Q9BRT3: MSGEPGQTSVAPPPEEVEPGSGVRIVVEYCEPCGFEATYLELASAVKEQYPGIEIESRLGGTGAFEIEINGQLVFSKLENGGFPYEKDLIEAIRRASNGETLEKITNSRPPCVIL
UniProt Q9BWT6: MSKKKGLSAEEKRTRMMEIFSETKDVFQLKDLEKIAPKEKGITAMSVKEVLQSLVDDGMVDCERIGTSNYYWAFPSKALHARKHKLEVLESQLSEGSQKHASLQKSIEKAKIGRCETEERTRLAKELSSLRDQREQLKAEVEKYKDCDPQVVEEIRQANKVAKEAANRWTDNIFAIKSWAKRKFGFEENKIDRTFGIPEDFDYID
UniProt P25325: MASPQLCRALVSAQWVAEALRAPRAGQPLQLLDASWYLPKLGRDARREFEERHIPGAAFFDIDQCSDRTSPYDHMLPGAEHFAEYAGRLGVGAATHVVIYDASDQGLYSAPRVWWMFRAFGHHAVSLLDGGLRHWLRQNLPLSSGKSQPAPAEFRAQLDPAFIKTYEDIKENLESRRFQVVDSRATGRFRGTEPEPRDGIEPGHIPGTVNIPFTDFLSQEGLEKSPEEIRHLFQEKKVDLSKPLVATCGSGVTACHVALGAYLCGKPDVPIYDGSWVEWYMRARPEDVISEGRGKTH
UniProt O00566: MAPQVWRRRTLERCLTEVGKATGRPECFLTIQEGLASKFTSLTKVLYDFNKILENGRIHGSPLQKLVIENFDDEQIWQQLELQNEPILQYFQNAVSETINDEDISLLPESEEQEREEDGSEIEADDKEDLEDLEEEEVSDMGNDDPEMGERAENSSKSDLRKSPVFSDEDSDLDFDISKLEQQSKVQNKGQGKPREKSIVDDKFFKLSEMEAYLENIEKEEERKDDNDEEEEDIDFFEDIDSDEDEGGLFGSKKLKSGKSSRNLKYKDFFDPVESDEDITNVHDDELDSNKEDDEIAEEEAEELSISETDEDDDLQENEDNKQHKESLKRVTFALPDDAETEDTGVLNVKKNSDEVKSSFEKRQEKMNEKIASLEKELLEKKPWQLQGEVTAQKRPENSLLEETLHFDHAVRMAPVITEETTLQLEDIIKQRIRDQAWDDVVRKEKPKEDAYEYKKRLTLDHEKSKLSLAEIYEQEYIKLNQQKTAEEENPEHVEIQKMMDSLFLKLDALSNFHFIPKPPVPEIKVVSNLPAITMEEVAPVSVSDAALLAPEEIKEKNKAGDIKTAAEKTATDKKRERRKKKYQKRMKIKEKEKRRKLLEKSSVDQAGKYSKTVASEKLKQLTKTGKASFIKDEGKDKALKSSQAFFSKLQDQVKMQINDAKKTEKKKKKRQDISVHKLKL
UniProt O96007: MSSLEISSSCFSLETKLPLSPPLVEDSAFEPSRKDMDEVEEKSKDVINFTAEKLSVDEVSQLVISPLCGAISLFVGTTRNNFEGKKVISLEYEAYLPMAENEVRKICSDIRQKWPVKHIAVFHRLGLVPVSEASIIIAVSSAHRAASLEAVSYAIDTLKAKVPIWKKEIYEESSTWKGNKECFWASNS
UniProt Q9NV56, whole entry, looked up: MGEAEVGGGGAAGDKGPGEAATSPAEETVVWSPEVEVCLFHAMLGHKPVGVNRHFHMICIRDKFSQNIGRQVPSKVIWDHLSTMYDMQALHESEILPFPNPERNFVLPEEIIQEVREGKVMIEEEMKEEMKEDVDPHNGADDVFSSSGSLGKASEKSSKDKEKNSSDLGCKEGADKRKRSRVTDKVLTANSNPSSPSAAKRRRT
UniProt Q567V2: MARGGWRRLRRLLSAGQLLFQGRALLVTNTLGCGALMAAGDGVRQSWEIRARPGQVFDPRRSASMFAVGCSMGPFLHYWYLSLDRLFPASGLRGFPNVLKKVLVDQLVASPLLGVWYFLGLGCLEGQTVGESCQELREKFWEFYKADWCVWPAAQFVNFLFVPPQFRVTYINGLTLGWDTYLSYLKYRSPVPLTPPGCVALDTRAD
UniProt Q95460, whole entry, looked up: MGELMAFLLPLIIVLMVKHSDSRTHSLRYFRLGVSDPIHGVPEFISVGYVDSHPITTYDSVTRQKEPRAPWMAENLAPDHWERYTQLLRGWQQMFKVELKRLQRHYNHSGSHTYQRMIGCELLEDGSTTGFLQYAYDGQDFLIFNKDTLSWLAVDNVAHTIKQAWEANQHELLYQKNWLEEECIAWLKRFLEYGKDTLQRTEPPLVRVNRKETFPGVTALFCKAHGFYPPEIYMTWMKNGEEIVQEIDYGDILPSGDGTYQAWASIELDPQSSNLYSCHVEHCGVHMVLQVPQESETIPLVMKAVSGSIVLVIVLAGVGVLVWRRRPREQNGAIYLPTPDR
UniProt Q8NB16: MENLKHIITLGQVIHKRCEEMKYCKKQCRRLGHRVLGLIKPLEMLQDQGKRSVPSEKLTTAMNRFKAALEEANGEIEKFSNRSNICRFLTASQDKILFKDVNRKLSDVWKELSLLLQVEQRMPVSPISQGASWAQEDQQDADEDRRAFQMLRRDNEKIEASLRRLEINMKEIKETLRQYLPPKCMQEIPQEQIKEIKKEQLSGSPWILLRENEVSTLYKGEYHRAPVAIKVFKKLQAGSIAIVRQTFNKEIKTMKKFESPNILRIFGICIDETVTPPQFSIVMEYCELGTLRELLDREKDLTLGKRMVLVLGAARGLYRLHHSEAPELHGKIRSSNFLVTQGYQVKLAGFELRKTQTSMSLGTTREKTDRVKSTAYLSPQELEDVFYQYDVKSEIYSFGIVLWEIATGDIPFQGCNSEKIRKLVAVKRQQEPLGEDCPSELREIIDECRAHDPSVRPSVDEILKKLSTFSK
UniProt Q9Y5U8: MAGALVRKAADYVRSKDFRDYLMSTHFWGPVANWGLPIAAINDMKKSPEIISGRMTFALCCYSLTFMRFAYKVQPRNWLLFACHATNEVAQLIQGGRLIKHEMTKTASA
UniProt Q70IA6: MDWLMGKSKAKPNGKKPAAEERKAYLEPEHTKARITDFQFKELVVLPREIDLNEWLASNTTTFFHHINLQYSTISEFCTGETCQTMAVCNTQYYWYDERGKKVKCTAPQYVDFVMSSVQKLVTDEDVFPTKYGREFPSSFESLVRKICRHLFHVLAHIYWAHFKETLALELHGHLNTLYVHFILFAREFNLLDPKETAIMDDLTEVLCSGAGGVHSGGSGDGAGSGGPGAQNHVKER

What was measured:
Assay in all cases: log2 fold change, soluble protein after heating vs DMSO (PISA); higher = thermal stabilisation; K562 cells, 10 uM, 30 min; active = over 0.2 and 3.5 SD of the protein, either way, in both replicates (recomputed)
[1] = compound: CC1=C(C=C(C=C1)NC(=O)C2=CC(=CC=C2)C(C)(C)C#N)NC3=CC4=C(C=C3)N=CN(C4=O)C
In short: (§1)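 Quantification of soluble protein used TMTpro 16plex LC-MS/MS, with channel sums equalised. Samples were the supernatant after 21,000xg for 90 min of pooled aliquots from K562 cells (2×10^6 cells/mL) treated with 10 μM compound for 30 min, heated for 3 min over 48°C-58°C, and extracted in PBS with 0.5% NP-40 at 4°C. Values, from duplicates, describe thermal stability against control samples on a log2 fold-change scale.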

[2] = compound: CC1=C(C=C(C=C1)NC(=O)C2=CC(=CC=C2)N(C)C)NC(=O)C3=CC=C(C=C3)O
In short: as §1

[3] = compound: CC1=CC=C(C=C1)SC2=C3C=C(SC3=CN=C2)C(=O)N
In short: as §1

[4] = compound: CC1=NC(=CC=C1)C2=C(N=C(N2)C(C)(C)C)C3=CC4=NC=CN=C4C=C3
In short: as §1

Nexturastat A = compound: CCCCN(Cc1ccc(C(=O)NO)cc1)C(=O)Nc1ccccc1 [Nexturastat A]
In short: as §1

vemurafenib = compound: CCCS(=O)(=O)Nc1ccc(F)c(C(=O)c2c[nH]c3ncc(-c4ccc(Cl)cc4)cc23)c1F [vemurafenib]
In short: as §1

[5] = compound: CCCS(=O)(=O)Nc1ccc(F)c(C(=O)c2c[nH]c3ncc(Cl)cc23)c1F
In short: as §1

[6] = compound: CCCc1cc(C)[nH]c(=O)c1CNC(=O)c1cc(-c2ccnc(N3CCN(C)CC3)c2)cc2c1cnn2C(C)C
In short: as §1

givinostat = compound: CCN(CC)Cc1ccc2cc(COC(=O)Nc3ccc(C(=O)NO)cc3)ccc2c1 [givinostat]
In short: as §1

barasertib = compound: CCN(CCCOc1ccc2c(Nc3cc(CC(=O)Nc4cccc(F)c4)[nH]n3)ncnc2c1)CCOP(=O)(O)O [barasertib]
In short: as §1

Measured: log2 fold change

MRPL19 (UniProt P49406)
inactive: [1] 0.106 | [2] -0.032 | [3] -0.049 | [4] -0.034 | Nexturastat A 0.169 | vemurafenib -0.073 | [5] -0.033 | [6] 0.071 | givinostat -0.06 | barasertib -0.085

MPP6 (UniProt Q9NZW5)
inactive: [1] 0.045 | [2] -0.009 | [3] 0.004 | [4] 0.013 | Nexturastat A -0.036 | vemurafenib 0.005 | [5] -0.01 | [6] 0.016 | givinostat -0.038 | barasertib 0.006

MON1B (UniProt Q7L1V2)
inactive: [1] 0.064 | [2] -0.003 | [3] 0.071 | [4] 0.019 | Nexturastat A -0.058 | vemurafenib -0.005 | [5] 0.032 | [6] -0.036 | givinostat 0.024 | barasertib 0.005

MOV10 (UniProt Q9HCE1)
inactive: [1] 0.044 | [2] 0.017 | [3] -0.055 | [4] -0.067 | Nexturastat A 0.221 | vemurafenib -0.027 | [5] -0.048 | [6] 0.054 | givinostat -0.006 | barasertib -0.05

MRPL54 (UniProt Q6P161)
inactive: [1] -0.045 | [2] 0.086 | [3] -0.044 | [4] -0.103 | Nexturastat A 0.105 | vemurafenib -0.061 | [5] -0.052 | [6] -0.106 | givinostat -0.049 | barasertib -0.088

MRPL3 (UniProt P09001)
inactive: [1] 0.072 | [2] -0.065 | [3] -0.055 | [4] -0.05 | Nexturastat A 0.172 | vemurafenib -0.047 | [5] -0.045 | [6] -0.044 | givinostat 0.031 | barasertib -0.018

MMAB (UniProt Q96EY8)
inactive: [1] -0.023 | [2] -0.009 | [3] 0.031 | [4] 0.005 | Nexturastat A -0.061 | vemurafenib -0.001 | [5] -0.002 | [6] 0.011 | givinostat 0.006 | barasertib 0.017

MPP1 (UniProt Q00013)
inactive: [1] 0.117 | [2] -0.052 | [3] 0.043 | [4] 0.025 | Nexturastat A 0.002 | vemurafenib 0.029 | [5] 0.04 | [6] 0.053 | givinostat 0.062 | barasertib 0.034

MPC2 (UniProt O95563)
inactive: [1] 0.001 | [2] 0.014 | [3] 0.057 | [4] 0.017 | Nexturastat A -0.063 | vemurafenib 0.009 | [5] -0.028 | [6] -0.103 | givinostat 0.031 | barasertib -0.012

MIF (UniProt P14174)
inactive: [1] 0.056 | [2] -0.014 | [3] 0.056 | [4] 0.098 | Nexturastat A -0.29 | vemurafenib -0.009 | [5] -0.047 | [6] -0.076 | givinostat -0.113 | barasertib -0.009

MRPL2 (UniProt Q5T653)
inactive: [1] 0.073 | [2] -0.027 | [3] -0.124 | [4] -0.058 | Nexturastat A 0.024 | vemurafenib 0.009 | [5] 0.008 | [6] 0.048 | givinostat 0.081 | barasertib 0

Quoted at random: two records from the list
MPC2 (UniProt O95563)
inactive: [1] 0.001 | [2] 0.014 | [3] 0.057 | [4] 0.017 | Nexturastat A -0.063 | vemurafenib 0.009 | [5] -0.028 | [6] -0.103 | givinostat 0.031 | barasertib -0.012

MPP1 (UniProt Q00013)
inactive: [1] 0.117 | [2] -0.052 | [3] 0.043 | [4] 0.025 | Nexturastat A 0.002 | vemurafenib 0.029 | [5] 0.04 | [6] 0.053 | givinostat 0.062 | barasertib 0.034

(next part)

MRPL30 isoform 2 (UniProt Q8TCC3)
inactive: [1] 0.096 | [2] -0.09 | [3] -0.063 | [4] -0.075 | Nexturastat A 0.284 | vemurafenib -0.066 | [5] 0.026 | [6] 0.084 | givinostat 0.06 | barasertib -0.036

MPHOSPH6 (UniProt Q99547)
inactive: [1] 0.009 | [2] 0.02 | [3] -0.1 | [4] -0.053 | Nexturastat A 0.185 | vemurafenib -0.045 | [5] 0.018 | [6] 0.001 | givinostat 0.12 | barasertib 0

MRPL38 (UniProt Q96DV4)
inactive: [1] 0.085 | [2] -0.042 | [3] -0.073 | [4] -0.007 | Nexturastat A 0.126 | vemurafenib -0.073 | [5] -0.052 | [6] 0.065 | givinostat 0.038 | barasertib -0.029

MIEN1 (UniProt Q9BRT3)
inactive: [1] -0.011 | [2] -0.029 | [3] 0.036 | [4] -0.054 | Nexturastat A -0.002 | vemurafenib 0.081 | [5] 0.073 | [6] 0.016 | givinostat 0 | barasertib 0.132

MND1 (UniProt Q9BWT6)
inactive: [1] 0.034 | [2] 0.021 | [3] 0 | [4] 0.025 | Nexturastat A -0.043 | vemurafenib -0.016 | [5] -0.024 | [6] -0.091 | givinostat 0.048 | barasertib -0.032

MPST isoform 2 (UniProt P25325)
inactive: [1] 0.058 | [2] -0.072 | [3] 0.069 | [4] 0.026 | Nexturastat A -0.075 | vemurafenib 0.07 | [5] 0.066 | [6] 0.126 | givinostat -0.008 | barasertib 0.049

MRPL27 (UniProt Q9P0M9)
inactive: [1] 0.121 | [2] -0.088 | [3] -0.064 | [4] -0.045 | Nexturastat A 0.179 | vemurafenib -0.142 | [5] 0.022 | [6] 0.218 | givinostat -0.029 | barasertib -0.125

MRPL17 (UniProt Q9NRX2)
inactive: [1] 0.027 | [2] -0.007 | [3] -0.087 | [4] -0.026 | Nexturastat A 0.126 | vemurafenib -0.08 | [5] -0.054 | [6] 0.049 | givinostat -0.003 | barasertib -0.051

MPHOSPH10 (UniProt O00566)
inactive: [1] 0.052 | [2] -0.01 | [3] -0.031 | [4] -0.079 | Nexturastat A 0.098 | vemurafenib -0.041 | [5] 0.009 | [6] 0.047 | givinostat 0.087 | barasertib -0.107

MORC3 (UniProt Q14149)
inactive: [1] -0.02 | [2] -0.06 | [3] -0.025 | [4] 0.059 | Nexturastat A -0.296 | vemurafenib 0.095 | [5] 0.032 | [6] 0.11 | givinostat -0.193 | barasertib 0.102

MOCS2 (UniProt O96007)
inactive: [1] -0.001 | [2] -0.013 | [3] 0.001 | [4] 0.003 | Nexturastat A -0.007 | vemurafenib 0.033 | [5] -0.02 | [6] -0.034 | givinostat -0.005 | barasertib 0.016

MRGBP (UniProt Q9NV56)
inactive: [1] -0.036 | [2] -0.036 | [3] -0.044 | [4] 0.026 | Nexturastat A -0.055 | vemurafenib 0.018 | [5] 0.068 | [6] -0.096 | givinostat -0.066 | barasertib 0.037

MRPL49 (UniProt Q13405)
inactive: [1] -0.003 | [2] -0.102 | [3] -0.104 | [4] -0.08 | Nexturastat A 0.173 | vemurafenib 0.014 | [5] -0.103 | [6] -0.023 | givinostat -0.075 | barasertib 0.003

MPV17L2 (UniProt Q567V2)
inactive: [1] -0.022 | [2] 0.028 | [3] -0.027 | [4] 0.091 | Nexturastat A -0.145 | vemurafenib 0.059 | [5] -0.037 | [6] 0.014 | givinostat -0.035 | barasertib -0.012

MICAL2 (UniProt O94851)
inactive: [2] -0.005 | [4] -0.089 | Nexturastat A 0.029 | vemurafenib 0.031 | [6] 0.044 | barasertib 0.031

MR1 (UniProt Q95460)
inactive: [4] -0.143 | Nexturastat A 0.089 | [6] -0.011 | givinostat 0.103

MLKL (UniProt Q8NB16)
inactive: [1] 0.161 | [3] 0.161 | [4] 0.024 | Nexturastat A -0.153 | vemurafenib 0.058 | [5] 0.023 | givinostat 0.113

MPC1 (UniProt Q9Y5U8)
inactive: [1] 0.044 | [2] -0.072 | [3] 0.075 | [5] 0.078 | [6] -0.045 | givinostat 0.012 | barasertib 0.012

MOB2 isoform 3 (UniProt Q70IA6)
inactive: [2] -0.039 | [3] 0.081 | Nexturastat A -0.149 | [5] 0.018 | [6] 0.163 | givinostat 0.061 | barasertib -0.121
